According to US9012493B2, “1-heterodiene derivative and pest control agent” (Nippon Soda Co., Ltd., priority 2009, dated 2015):
Some results were stated once for a whole list of compounds, not compound by compound.

What was measured:
Assay type in all cases: in vivo
[1] = system: Autogenic House Mosquito (Culex Pipiens Molestus Forskal); test: Efficacy test against autogenic house mosquito larvae, 96-well microplate; details: final concentration of the compound 0.001%, larvae 1 day after hatching, after 2 days, 25° C.
[2] = system: House Fly (Musca Domestica); test: Efficacy test against house fly, sugar water on absorbent cotton; details: 125 ppm in 10% sugar water, female adults, after 3 days
[3] = system: German Cockroach (Blattella Germanica); test: Efficacy test against German cockroach, treated artificial diet (Test Example 6-1); details: 2,000 ppm acetone solution, 250 μL on 0.5 g artificial diet for rat, first instar larvae, after 5 days

Structure (SMILES) | insecticidal rate [1] | insecticidal rate [2] | insecticidal rate [3]
C=C1SC(=Nc2ccc(C)cc2)C(=CSc2ccc3ccccc3c2)CC1(C)C (mixture of isomers) [Compound 2-88] | ≥ 90% | – | –
C=C1SC(=Nc2ccc(C)cc2)C(=CSc2ccc([N+](=O)[O-])cc2)CC1(C)C (mixture of isomers) [Compound 6-4] | ≥ 90% | – | –
C=C1SC(=Nc2ccc(C)cc2)C(=CSC2CCCCC2)CC1(C)C (mixture of isomers) [Compound 6-5] | ≥ 90% | – | –
C=C1SC(=Nc2ccc(C)cc2)C(=CSC2CCc3ccccc32)CC1(C)C (racemic) [Compound 2-115] | ≥ 90% | – | –
C=C1SC(=Nc2ccc(OC)cc2)C(=CSc2ccccc2)CC1(C)CCC=C(C)C (racemic) [Compound 2-130] | ≥ 90% | – | –
C=C1CC(=CSc2ccccc2)C(=Nc2ccc(Cl)cc2)S1 [Compound 1-1] | ≥ 90% | – | –
CC(C)=C1CC(=CSc2ccccc2)C(=Nc2ccc(Cl)cc2)S1 [Compound 1-2] | ≥ 90% | – | –
CC(C)=C1CC(=CSc2ccccc2)C(=[NH+]c2ccc(Cl)cc2)S1.F[B-](F)(F)F [Compound 1-3] | ≥ 90% | – | –
C=C1CCC(=CSc2ccccc2)C(=Nc2ccc(Cl)cc2)S1 [Compound 2-1] | ≥ 90% | – | –
CC(C)=C1CCC(=C\Sc2ccccc2)/C(=N/c2ccc(Cl)cc2)S1 [Compound 2-2, (4-chloro-phenyl)-{6-isopropylidene-3-[1-phenylsulfanyl-(E)-methylidene]-tetrahydro-thiopyran-(2Z)-ylidene}-amine] | ≥ 90% | ≥ 80% | ≥ 80%
C=C1CCC(=CSc2ccccc2)C(=Nc2ccc(C(F)(F)F)cc2)S1 [Compound 2-5] | ≥ 90% | – | –
C=C1CCC(=CSc2ccccn2)C(=Nc2ccc(C)cc2)S1 [Compound 2-7] | ≥ 90% | – | –
C=C1CCC(=CSc2ccccc2)C(=Nc2ccc(OC)cc2)S1 [Compound 2-8] | ≥ 90% | – | –
C=C1CCC(=CSc2ccc(F)cc2)C(=Nc2ccc(OC)cc2)S1 [Compound 2-9] | ≥ 90% | – | –
C=C1CCC(=CSc2ccccc2)C(=NC2CCCC2)S1 [Compound 2-10] | ≥ 90% | – | –
C=C1SC(=N\c2ccc(C)cc2)/C(=C/Sc2ccccc2)CC1(C)C [Compound 2-11, {5,5-dimethyl-6-methylene-3-[1-phenylsulfanyl-(E)-methylidene]-tetrahydro-thiopyran-(2Z)-ylidene}-p-tolyl-amine] | ≥ 90% | ≥ 80% | ≥ 80%
C=C1SC(=Nc2ccc(OC)cc2)C(=CSc2ccccc2)CC1(C)C [Compound 2-16] | ≥ 90% | ≥ 80% | ≥ 80%
C=C1SC(=Nc2ccc(C)cc2)C(=CSc2ccc(OC)cc2)CC1(C)C [Compound 2-18] | ≥ 90% | ≥ 80% | ≥ 80%
C=C1SC(=Nc2ccc(C)cc2)C(=CSc2ccccc2OC)CC1(C)C [Compound 2-19] | ≥ 90% | ≥ 80% | ≥ 80%
C=C1SC(=Nc2ccc(C)cc2)C(=CSc2ccc(NC(C)=O)cc2)CC1(C)C [Compound 2-21] | ≥ 90% | – | –
COc1ccc(N=C2SC(=C(C)C)CCC2=CSc2ccc(F)cc2)cc1 [Compound 2-22] | ≥ 90% | – | –
COc1ccc(N=C2SC(=C(C)C)CCC2=CSc2ccccc2)cc1 [Compound 2-23] | ≥ 90% | ≥ 80% | ≥ 80%
C=C1SC(=Nc2ccc(C)cc2)C(=CSc2ccc(F)cc2)CC12CCCCC2 [Compound 2-24] | ≥ 90% | – | –

Structure (SMILES) | insecticidal rate [1] | insecticidal rate [2] | insecticidal rate [3]
C=C1SC(=Nc2cccc(OC)c2)C(=CSc2ccccc2)CC1(C)C [Compound 2-25] | ≥ 90% | – | –
C=C1SC(=Nc2ccc(C)cc2Cl)C(=CSc2ccccc2)CC1(C)C [Compound 2-26] | ≥ 90% | ≥ 80% | ≥ 80%
C=C1SC(=Nc2ccc(OC)c(OC)c2)C(=CSc2ccccc2)CC1(C)C [Compound 2-28] | ≥ 90% | – | –
C=C1SC(=Nc2cccc(Cl)c2)C(=CSc2ccccc2)CC1(C)C [Compound 2-29] | ≥ 90% | ≥ 80% | ≥ 80%
C=C1SC(=Nc2ccc(OC)cc2OC)C(=CSc2ccccc2)CC1(C)C [Compound 2-30] | ≥ 90% | – | –
C=C1SC(=Nc2c(F)cccc2F)C(=CSc2ccccc2)CC1(C)C [Compound 2-31] | ≥ 90% | – | –
C=C1SC(=Nc2ccc(OC)cc2F)C(=CSc2ccccc2)CC1(C)C [Compound 2-33] | ≥ 90% | ≥ 80% | ≥ 80%
C=C1SC(=Nc2cccc(Cl)c2Cl)C(=CSc2ccccc2)CC1(C)C [Compound 2-37] | ≥ 90% | – | –
C=C1SC(=Nc2ccc3c(c2)OCO3)C(=CSc2ccccc2)CC1(C)C [Compound 2-39] | ≥ 90% | ≥ 80% | –
C=C1SC(=Nc2ccc(OC)cc2C)C(=CSc2ccc(OC)cc2)CC1(C)C [Compound 2-42] | ≥ 90% | ≥ 80% | –
COc1ccc(N=C2SC(=C(C)C)CCC2=CSc2ncccn2)cc1 [Compound 2-43] | ≥ 90% | – | –
C=C1SC(=Nc2cc(OC)ccc2OC)C(=CSc2ccccc2)CC1(C)C [Compound 2-45] | ≥ 90% | – | –
C=C1SC(=Nc2ccc(OC)cc2)C(=CSc2ncccn2)CC1(C)C [Compound 2-47] | ≥ 90% | – | –
C=C1CCC(=CSc2ccccc2)C(=Nc2ccsc2)S1 [Compound 2-52] | ≥ 90% | – | –
C=C1SC(=Nc2ccccc2)C(=CSc2ccccc2)CC1(C)C [Compound 2-53] | ≥ 90% | ≥ 80% | ≥ 80%
C=C1SC(=Nc2ccccc2)C(=CSc2ccc(F)cc2)CC1(C)C [Compound 2-54] | ≥ 90% | ≥ 80% | ≥ 80%
C=C1SC(=Nc2ccc(C)cc2)C(=CSc2ccc(F)cc2)CC12CCOCC2 [Compound 2-57] | ≥ 90% | – | –
C=C1SC(=Nc2ccc(OC)cc2)C(=CSC2CCCC2)CC1(C)C [Compound 2-58] | ≥ 90% | – | –
C=C1SC(=Nc2ccc(OC)cc2)C(=CSc2nnc(C)s2)CC1(C)C [Compound 2-60] | ≥ 90% | – | –
C=C1SC(=Nc2ccc(OC(C)C)cc2)C(=CSc2ccccc2)CC1(C)C [Compound 2-61] | ≥ 90% | – | –
C=C1SC(=Nc2c(F)cc(OC)cc2F)C(=CSc2ccccc2)CC1(C)C [Compound 2-65] | ≥ 90% | – | –
C=C1SC(=Nc2c(C)cc(OC)cc2C)C(=CSc2ccccc2)CC1(C)C [Compound 2-67] | ≥ 90% | – | –
C=C1SC(=Nc2ccc(OC)cc2)C(=CSc2nc(C)c(C)s2)CC1(C)C [Compound 2-69] | ≥ 90% | – | –

Structure (SMILES) | insecticidal rate [1] | insecticidal rate [2] | insecticidal rate [3]
C=C1SC(=Nc2ccc(C)cc2)C(=CSC(C)(C)C)CC1(C)C [Compound 2-74] | ≥ 90% | – | –
C=C1SC(=Nc2ccc(OC)cc2)C(=CSc2ccc(C=O)cc2)CC1(C)C [Compound 2-82] | ≥ 90% | – | –
C=C1SC(=Nc2ccc(OC)cc2)C(=CSc2ccc(C(F)(F)F)cn2)CC1(C)C [Compound 2-95] | ≥ 90% | – | –
C=C1SC(=Nc2ccc(C)cc2)C(=CSc2ccccc2CO)CC1(C)C [Compound 2-96] | ≥ 90% | – | –
C=C1SC(=Nc2ccc(C)cc2)C(=CSc2ccc(N(C)C)cc2)CC1(C)C [Compound 2-97] | ≥ 90% | – | –
C=C1SC(=Nc2ccc(OC)cc2)C(=CSc2nccc(-c3ccccn3)n2)CC1(C)C [Compound 2-108] | ≥ 90% | – | –
C=C1SC(=Nc2ccc(OC)cc2)C(=CSc2cccc(Oc3ccccc3)c2)CC1(C)C [Compound 2-109] | ≥ 90% | – | –
C=C1SC(=Nc2ccc(C)cc2)C(=CSCc2ccccc2)CC1(C)C [Compound 2-112] | ≥ 90% | – | –
C=C1SC(=Nc2ccc(C)cc2)C(=CSc2sccc2OC)CC1(C)C [Compound 2-116] | ≥ 90% | – | –
C=C1SC(=Nc2ccc(C)cc2)C(=CSc2nccc(C)n2)CC1(C)C [Compound 2-121] | ≥ 90% | – | –
C#CCSC=C1CC(C)(C)C(=C)SC1=Nc1ccc(C)cc1 [Compound 2-122] | ≥ 90% | – | –
C=C1SC(=Nc2ccc(C)cc2)C(=CSc2cc(C)oc2C)CC1(C)C [Compound 2-123] | ≥ 90% | – | –
C=C1SC(=Nc2ccc(C)cc2)C(=CSc2ccc(C(C)(C)C)cc2)CC1(C)C [Compound 2-125] | ≥ 90% | – | –
C=C1SC(=Nc2ccc(C)cc2)C(=CSc2cc(C(F)(F)F)ccn2)CC1(C)C [Compound 2-126] | ≥ 90% | – | –
C=C1SC(=Nc2ccc(OC)cc2)C(=CSc2nccc(C)n2)CC1(C)C [Compound 2-127] | ≥ 90% | – | –
C=C1SC(=Nc2ccccc2)C(=CSc2nccc(C)n2)CC1(C)C [Compound 2-128] | ≥ 90% | – | –
C=C1SC(=Nc2ccccc2)C(=CSc2nc(C)cnc2C)CC1(C)C [Compound 2-131] | ≥ 90% | – | –
C=C1SC(=Nc2ccc(C)c(C)c2)C(=CSc2nccc(C)n2)CC1(C)C [Compound 2-132] | ≥ 90% | – | –
C=C1SC(=Nc2ccc(C)cc2)C(=CSc2nccc(OC)n2)CC1(C)C [Compound 2-133] | ≥ 90% | – | –
C=C1SC(=Nc2ccc(OC)cc2)C(=CSc2ccccn2)CC1(C)C [Compound 4-2] | ≥ 90% | – | –
C=C1SC(=Nc2ccc(C)cc2)C(=CSc2nccs2)CC1(C)C [Compound 4-3] | ≥ 90% | – | –
C=C1[S+]([O-])C(=Nc2ccc(OC)cc2)C(=CSc2cccs2)CC1(C)C (centres unmarked) [Compound 4-5] | ≥ 90% | – | –
